According to publication PMC3407131, “Annexin A2 Is a Natural Extrahepatic Inhibitor of the PCSK9-Induced LDL Receptor Degradation” (PLoS ONE, 2012):
No constants are given. Whether binding was seen depends on the method and setting.

Sequences of proteins named here, by UniProt entry; tags and fusion partners are left off. A change or cut given only in a name is not applied to a line headed by its entry. A line that says so, or that is headed by a name, gives the form on record, which may keep a tag or linker. Residues count along the entry.
UniProt Q8NBP7, residues 30-692: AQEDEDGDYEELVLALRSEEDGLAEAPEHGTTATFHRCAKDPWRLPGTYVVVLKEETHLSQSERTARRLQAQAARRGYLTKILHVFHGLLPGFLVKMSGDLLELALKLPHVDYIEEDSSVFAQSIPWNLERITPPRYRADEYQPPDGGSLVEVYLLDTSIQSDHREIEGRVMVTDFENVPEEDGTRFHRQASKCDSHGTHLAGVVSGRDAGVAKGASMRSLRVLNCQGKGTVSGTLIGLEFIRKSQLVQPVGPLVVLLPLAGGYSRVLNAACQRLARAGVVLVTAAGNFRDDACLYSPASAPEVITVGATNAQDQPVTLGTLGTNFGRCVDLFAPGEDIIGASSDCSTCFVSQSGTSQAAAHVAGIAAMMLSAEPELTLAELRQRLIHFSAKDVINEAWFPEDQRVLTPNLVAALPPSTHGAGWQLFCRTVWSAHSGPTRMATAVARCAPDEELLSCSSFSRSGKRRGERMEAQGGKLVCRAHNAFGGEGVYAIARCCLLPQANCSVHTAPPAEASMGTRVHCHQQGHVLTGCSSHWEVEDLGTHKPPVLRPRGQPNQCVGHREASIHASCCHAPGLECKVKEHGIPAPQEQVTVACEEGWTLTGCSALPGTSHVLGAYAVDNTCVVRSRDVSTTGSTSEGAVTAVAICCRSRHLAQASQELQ
small 25 aa AnxA2 peptide (residues 73–97) (P07355, residues 73-97): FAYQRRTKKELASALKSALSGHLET
intermediate length AnxA2 peptide (49–97) incorporating 4 alanine substitutions (77AATAA81) (P07355, form named): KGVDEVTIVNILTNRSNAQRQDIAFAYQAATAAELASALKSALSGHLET

Target: biotin-labeled human PCSK9 protein (residues 30–692) (human) (UniProt Q8NBP7)
Assay: AlphaScreen or HTRF; competition: biotin-PCSK9 (15 nM) and His-LDLR ectodomain (15 nM) mixed with increasing AnxA2 peptide, 60 min at 20°C in 25 mM Hepes pH 7.4, 100 mM NaCl, 0.5 mM CaCl2, 0.1% BSA; streptavidin donor and nickel chelate acceptor beads, overnight at 20°C; both purified

small 25 aa AnxA2 peptide (residues 73–97) (from UniProt P07355 73-97)
binding: no binding

intermediate length AnxA2 peptide (49–97) incorporating 4 alanine substitutions (77AATAA81) (from UniProt P07355 49-97)
binding: no binding
